Reference: US8119681B2, “2-[1-phenyl-5-hydroxy or methoxy-4alpha-methyl-hexahydrocyclopenta [ƒ]indazole-5-YL]ethyl phenyl derivatives as glucocorticoid receptor ligands” (Merck Sharp & Dohme Corp., priority 2006, dated 2012)
Read-outs that look alike come from different tables or passages of the source. Some of these results come from one statement about several compounds together. For at least one compound, name, drawing or mass did not settle the structure.

Key:
[1] = molecular target: T1, glucocorticoid receptor (GR) (Homo sapiens, UniProt P04150); test: Ligand binding assay (GR BIND), 3H-dexamethasone displacement, HeLa cell lysate
T1 construct: endogenous in cells; host or cells: HeLa (ATCC) cell lysate supernatant
T1 sequence (P04150 1-777): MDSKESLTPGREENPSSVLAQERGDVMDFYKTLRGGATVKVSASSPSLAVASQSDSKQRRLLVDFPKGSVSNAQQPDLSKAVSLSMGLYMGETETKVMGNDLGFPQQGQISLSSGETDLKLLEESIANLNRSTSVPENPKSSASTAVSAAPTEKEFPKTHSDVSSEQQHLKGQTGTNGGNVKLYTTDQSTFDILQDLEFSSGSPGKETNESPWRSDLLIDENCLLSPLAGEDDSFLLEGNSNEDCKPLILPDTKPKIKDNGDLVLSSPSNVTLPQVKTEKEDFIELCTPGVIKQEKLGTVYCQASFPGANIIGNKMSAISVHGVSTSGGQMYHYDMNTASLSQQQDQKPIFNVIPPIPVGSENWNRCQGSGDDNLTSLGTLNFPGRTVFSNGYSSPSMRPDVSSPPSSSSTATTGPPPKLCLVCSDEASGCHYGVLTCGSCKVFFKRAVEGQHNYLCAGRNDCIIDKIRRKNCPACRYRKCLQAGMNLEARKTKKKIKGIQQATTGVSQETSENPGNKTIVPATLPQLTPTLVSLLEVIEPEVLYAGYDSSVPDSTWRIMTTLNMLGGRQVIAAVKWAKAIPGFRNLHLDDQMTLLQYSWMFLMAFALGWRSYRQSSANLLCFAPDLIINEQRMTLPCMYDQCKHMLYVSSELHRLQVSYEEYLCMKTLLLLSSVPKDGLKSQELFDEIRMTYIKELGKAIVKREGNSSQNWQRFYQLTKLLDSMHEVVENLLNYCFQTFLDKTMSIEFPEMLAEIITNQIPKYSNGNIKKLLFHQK
Description: Binding Buffer: TEGM (10 mM Tris-HCl, 1 mM EDTA, 10% glycerol, 1 mM beta-mercaptoethanol, 10 mM Sodium Molybdate, pH 7.2)
50% HAP Slurry: Calbiochem Hydroxylapatite, Fast Flow, in 10 mM Tris, pH 8.0 and 1 mM EDTA.
Wash Buffer: 40 mM Tris, pH7.5, 100 mM KCl, 1 mM EDTA and 1 mM EGTA.
Dexmethasone-methyl-^3H, (DEX*); (Amersham cat# TRK645)
Dexamethasone (DEX) (Sigma, cat# D1756):
Phenol red-free Trypsin-EDTA is diluted in the same PBS 1:10. The cell layers are rinsed with 1× Trypsin, extra Trypsin is poured out, and the cell layers are incubated at 37° C. for ˜2 min. The flask is tapped and checked for signs of cell detachment. Once the cells begin to slide off the flask, the complete media is added. The cells are counted at this point, then diluted to the appropriate concentration and split into flasks or dishes for further culturing (Usually 1:3 to 1:6 dilution).
Preparation of Hela Cell Lysate
The cell pellet is washed twice with TEGM (10 mM Tris-HCl, 1 mM EDTA, 10% glycerol, 1 mM beta-mercaptoethanol, 10 mM Sodium Molybdate, pH 7.2). After the final wash, the cells are resuspended in TEGM at a concentration of 10^7 cells/mL. The cell suspension is snap frozen in liquid nitrogen or ethanol/dry ice bath and transferred to −80° C. freezer on dry ice. Before setting up the binding assay, the frozen samples are left on ice-water to just thaw (˜1 hr). Then the samples are centrifuged at 12,500 g to 20,000 g for 30 min at 4° C. The supernatant is used to set-up assay right away. If using 50 μL of supernatant, the test compound can be prepared in 50 μL of the TEGM buffer.
Procedure for Multiple Compound Screening
1×TEGM buffer is prepared, and the isotope-containing assay mixture is prepared in the following order: EtOH (2% final concentration in reaction), 3H-DEX (Amersham Biosciences) and 1×TEGM. [e.g. For 100 samples, 200 μL (100×2) of EtOH+4.25 μL of 1:10 ^3H-Dex stock+2300 μL (100×23) 1×TEGM]. The compound is serially diluted, e.g., if starting final conc. is 1 μM, and the compound is in 25 μL of solution, for duplicate samples, 75 μL of 4×1 μM solution is made and 3 μL of 100 μM is added to 72 μL of buffer, and 1:5 serial dilution.
25 μL of ^3H-DEX (6 nM) trace and 25 μL compound solution are first mixed together, followed by addition of 50 μL receptor solution. The reaction is gently mixed, spun briefly at about 200 rpm and incubated at 4° C. overnight. 100 μL of 50% HAP slurry is prepared and added to the incubated reaction which is then vortexed and incubated on ice for 5 to 10 minutes. […] The HAP pellet on the filter plate is incubated with 50 μL of MICROSCINT (Packard) scintillant for 30 minutes before being counted on the TopCount microscintillation counter (Packard). IC50s are calculated using DEX as a reference.

human GR = molecular target: T2, human GR (Homo sapiens, UniProt P04150); test: Trans-Activation Modulation of Glucocorticoid Receptor (GRAMMER), MMTV-LUC reporter gene; type: cell-based; design: endogenous in cells; conditions: GRAMMER versus GITAR
T2 sequence (P04150 1-777): T1 sequence (P04150 1-777)
Text: Trans-Activation Modulation of Glucocorticoid Receptor (GRAMMER)
This assay assesses the ability of test compounds to control transcription from the MMTV-LUC reporter gene in lung adenocarcinoma A549 cells or HeLa cells, a human […] cell line that naturally expresses the human GR. The assay measures induction of a modified MMTV LTR/promoter linked to the LUC reporter gene.
The routine transient assay consists of plating 7,000-25,000 cells/well of a white, clear-bottom 96-well plate. Alternatively, 384-well plates can be used at a cell concentration of 10,000/well. The media that the cells are plated in is “exponential growth medium” which consists of phenol red-free RPMI1640 containing 10% FBS, 4 mM L-glutamine, 20 mM HEPES, 10 ug/mL human insulin, and 20 ug/mL gentamicin. Incubator conditions are 37° C. and 5% CO2. The transfection is done in batch mode. The cells are trypsinized and counted to the right cell number in the proper amount of fresh media. It is then gently mixed with the FuGene6/DNA mix and plated onto the 96 or 384-well plate, all the wells receive 100 uL or 40 uL, respectively, of medium+lipid/DNA complex then incubated 37° C. overnight. The transfection cocktail consists of serum-free OptiMEM, FuGene6 reagent and DNA. The manufacturer's (Roche Biochemical) protocol for cocktail setup is as follows: The lipid to DNA ratio is approximately 2.5:1 and the incubation time is 20 min at room temperature. Sixteen to 24 hours after transfection, the cells are treated with dexamethasone to a final concentration of 10 nM as well as the compound of interest, such that final DMSO (vehicle) concentration is equal to or less than 1%. Each plate also contains samples that are treated with 10 nM dexamethasone alone, which is used as the 100% activity control. The cells are exposed to the compounds for 24 hours. After 24 hours, the cells are lysed by a Promega cell culture lysis buffer for approximately 30 min and then the luciferase activity in the extracts is assayed in the 96-well format luminometer. In 384-well format, Steady-Glo (Promega) or Steady-Lite (PerkinElmer) can be used by adding an equal volume of reagent to the media present in each well. Activity induced by 10 nM dexamethasone alone is set at 100% activity. Antagonist activity is calculated by determining the decrease in dexamethasone-induced activity in response to compound treatment relative to samples that were treated with dexamethasone alone. […] This transactivation assay can be performed in an agonist and antagonist mode to identify these different activities. […]

[2] = read-out: IC50 in the ligand binding assay; calculated using DEX as a reference

Row | Compound | IC50 [1, 2] | maximal transactivation activity compared with maximal transrepression activity (human GR) | IC50 ([1]; calculated using DEX as a reference; read-out: IC50 in the ligand binding assay)
1 | CC(C)NC(=O)Oc1ccccc1CC[C@]1(O)CCC2=Cc3c(cnn3-c3ccc(F)cc3)C[C@@]21C [Example 136, 2-{2-[(4αS,5R)-1-(4-fluorophenyl)-5-hydroxy-4α-methyl-1,4,4α,5,6,7-hexahydrocyclopenta[f]indazol-5-yl]ethyl}phenyl isopropylcarbamate] | < 1 µM | maximal transactivation activity less then maximal transrepression activity | 
2 | C[C@]12Cc3cnn(-c4ccc(F)cc4)c3C=C1CC[C@@]2(O)/C=C/c1ccccc1S(N)(=O)=O [Example 160, 2-{(E)-2-[(4αS,5R)-1-(4-fluorophenyl)-5-hydroxy-4α-methyl-1,4,4α,5,6,7-hexahydrocyclopenta[f]indazol-5-yl]vinyl}benzenesulfonamide] |  | maximal transactivation activity less then maximal transrepression activity | < 1 µM
3 | C[C@]12Cc3cnn(-c4ccc(F)cc4)c3C=C1CC[C@@]2(O)CCc1ccccc1C(O)(C(N)=O)C1CC1 (stereo partly drawn) [Example 200, 2-cyclopropyl-2-(2-{2-[(4αS,5R)-1-(4-fluorophenyl)-5-hydroxy-4α-methyl-1,4,4α,5,6,7-hexahydrocyclopenta[f]indazol-5-yl]ethyl}phenyl)-2-hydroxyacetamide] | < 1 µM | maximal transactivation activity less then maximal transrepression activity | 
4 | CCNC(=O)Oc1ccccc1CC[C@]1(O)CCC2=Cc3c(cnn3-c3ccc(F)cc3)C[C@@]21C [Example 18, 2-{2-[(4αS,5R)-1-(4-fluorophenyl)-5-hydroxy-4α-methyl-1,4,4α,5,6,7-hexahydrocyclopenta[f]indazol-5-yl]ethyl}phenyl ethylcarbamate] | < 1 µM | maximal transactivation activity less then maximal transrepression activity | 
